Laboratory results taken from the supplement of paper PMC10849652.
Some of the results follow.

Chains of the proteins cited; added tags and fusions are not shown. Lines headed by an entry give the natural chain unless they say otherwise; changes in a name come on top.
UniProt Q9NRS6: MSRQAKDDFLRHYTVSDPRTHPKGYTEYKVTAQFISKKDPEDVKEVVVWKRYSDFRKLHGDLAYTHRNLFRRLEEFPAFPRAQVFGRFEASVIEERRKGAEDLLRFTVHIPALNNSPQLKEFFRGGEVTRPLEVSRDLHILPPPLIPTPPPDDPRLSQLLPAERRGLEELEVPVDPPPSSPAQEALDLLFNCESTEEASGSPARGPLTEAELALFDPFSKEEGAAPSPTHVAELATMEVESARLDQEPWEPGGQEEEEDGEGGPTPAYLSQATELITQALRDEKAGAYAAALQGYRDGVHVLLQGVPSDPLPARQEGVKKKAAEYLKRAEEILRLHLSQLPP
UniProt Q96KF7: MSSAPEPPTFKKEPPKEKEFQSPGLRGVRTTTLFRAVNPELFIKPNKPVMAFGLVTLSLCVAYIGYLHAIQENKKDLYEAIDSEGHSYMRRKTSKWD
UniProt P23497: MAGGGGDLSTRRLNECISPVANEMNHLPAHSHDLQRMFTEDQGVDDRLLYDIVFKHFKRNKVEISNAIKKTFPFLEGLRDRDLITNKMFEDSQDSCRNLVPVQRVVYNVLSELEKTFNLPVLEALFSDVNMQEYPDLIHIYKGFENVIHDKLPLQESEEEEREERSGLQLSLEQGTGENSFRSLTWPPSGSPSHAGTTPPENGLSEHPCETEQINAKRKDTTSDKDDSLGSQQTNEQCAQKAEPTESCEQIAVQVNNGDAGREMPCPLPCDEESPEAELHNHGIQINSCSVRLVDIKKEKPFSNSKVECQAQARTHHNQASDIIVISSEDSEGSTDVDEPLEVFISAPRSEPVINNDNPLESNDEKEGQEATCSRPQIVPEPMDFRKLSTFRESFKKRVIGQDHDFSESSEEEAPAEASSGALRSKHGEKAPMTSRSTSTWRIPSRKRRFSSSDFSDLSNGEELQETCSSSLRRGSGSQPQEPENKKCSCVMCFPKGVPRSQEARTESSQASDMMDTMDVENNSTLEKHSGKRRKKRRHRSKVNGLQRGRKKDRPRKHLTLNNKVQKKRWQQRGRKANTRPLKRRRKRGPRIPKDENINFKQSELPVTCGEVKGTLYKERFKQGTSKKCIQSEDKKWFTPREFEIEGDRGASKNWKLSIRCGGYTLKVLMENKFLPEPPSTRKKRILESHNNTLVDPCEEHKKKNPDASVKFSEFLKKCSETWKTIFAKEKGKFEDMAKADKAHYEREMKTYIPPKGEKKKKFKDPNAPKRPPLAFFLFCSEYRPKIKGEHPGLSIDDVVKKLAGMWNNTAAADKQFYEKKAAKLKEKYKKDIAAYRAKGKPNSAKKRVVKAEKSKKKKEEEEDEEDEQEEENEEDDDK
UniProt Q96EX1: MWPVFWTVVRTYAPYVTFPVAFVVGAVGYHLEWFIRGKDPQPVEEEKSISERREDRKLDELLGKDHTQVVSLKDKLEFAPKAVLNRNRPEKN
UniProt Q8WVK2: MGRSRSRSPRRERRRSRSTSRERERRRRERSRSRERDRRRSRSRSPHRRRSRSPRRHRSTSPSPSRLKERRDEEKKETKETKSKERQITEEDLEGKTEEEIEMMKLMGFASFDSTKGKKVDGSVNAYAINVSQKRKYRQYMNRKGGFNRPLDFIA
UniProt Q8NDV3: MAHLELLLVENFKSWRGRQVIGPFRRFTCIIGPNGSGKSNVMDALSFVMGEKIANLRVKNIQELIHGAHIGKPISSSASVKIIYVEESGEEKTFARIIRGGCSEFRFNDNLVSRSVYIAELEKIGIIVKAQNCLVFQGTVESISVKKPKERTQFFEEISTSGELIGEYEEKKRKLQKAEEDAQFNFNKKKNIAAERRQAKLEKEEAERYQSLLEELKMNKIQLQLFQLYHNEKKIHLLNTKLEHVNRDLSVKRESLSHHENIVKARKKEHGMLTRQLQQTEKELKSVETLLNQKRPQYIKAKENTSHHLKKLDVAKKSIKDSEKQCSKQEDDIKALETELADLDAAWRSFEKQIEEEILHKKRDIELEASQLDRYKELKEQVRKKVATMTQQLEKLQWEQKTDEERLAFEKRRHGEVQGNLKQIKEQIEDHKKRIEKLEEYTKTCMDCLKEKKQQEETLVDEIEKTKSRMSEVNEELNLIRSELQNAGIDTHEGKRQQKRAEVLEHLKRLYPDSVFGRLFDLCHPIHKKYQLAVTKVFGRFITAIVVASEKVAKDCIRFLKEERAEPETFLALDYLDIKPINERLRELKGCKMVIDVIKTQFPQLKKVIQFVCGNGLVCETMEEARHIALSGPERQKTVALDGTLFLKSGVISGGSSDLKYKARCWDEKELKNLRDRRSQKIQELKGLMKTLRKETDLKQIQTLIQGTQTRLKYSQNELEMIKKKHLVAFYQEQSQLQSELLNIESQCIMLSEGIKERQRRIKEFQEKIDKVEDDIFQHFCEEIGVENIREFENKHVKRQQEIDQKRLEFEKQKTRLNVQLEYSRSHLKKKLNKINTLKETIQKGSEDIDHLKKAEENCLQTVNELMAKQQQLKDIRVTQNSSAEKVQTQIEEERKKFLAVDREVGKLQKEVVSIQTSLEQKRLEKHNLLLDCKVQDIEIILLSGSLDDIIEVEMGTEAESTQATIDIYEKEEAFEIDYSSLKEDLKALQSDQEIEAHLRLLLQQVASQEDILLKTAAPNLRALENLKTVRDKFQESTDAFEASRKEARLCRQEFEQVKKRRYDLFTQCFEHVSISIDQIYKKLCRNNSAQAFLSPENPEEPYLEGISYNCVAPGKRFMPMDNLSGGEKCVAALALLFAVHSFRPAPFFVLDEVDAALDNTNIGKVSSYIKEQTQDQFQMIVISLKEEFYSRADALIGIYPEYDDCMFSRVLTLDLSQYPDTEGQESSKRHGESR
UniProt Q969G3, whole entry, looked up: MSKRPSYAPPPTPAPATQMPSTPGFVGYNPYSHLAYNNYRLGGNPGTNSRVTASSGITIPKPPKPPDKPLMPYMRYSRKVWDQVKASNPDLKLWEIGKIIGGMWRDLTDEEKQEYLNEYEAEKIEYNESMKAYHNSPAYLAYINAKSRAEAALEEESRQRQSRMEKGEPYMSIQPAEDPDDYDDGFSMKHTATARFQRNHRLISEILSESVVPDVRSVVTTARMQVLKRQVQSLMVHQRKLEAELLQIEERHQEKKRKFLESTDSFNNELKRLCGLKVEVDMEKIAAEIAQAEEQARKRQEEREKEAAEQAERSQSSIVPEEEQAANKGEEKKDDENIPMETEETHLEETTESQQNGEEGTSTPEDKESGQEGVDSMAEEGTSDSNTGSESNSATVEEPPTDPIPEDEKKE
UniProt Q96R06: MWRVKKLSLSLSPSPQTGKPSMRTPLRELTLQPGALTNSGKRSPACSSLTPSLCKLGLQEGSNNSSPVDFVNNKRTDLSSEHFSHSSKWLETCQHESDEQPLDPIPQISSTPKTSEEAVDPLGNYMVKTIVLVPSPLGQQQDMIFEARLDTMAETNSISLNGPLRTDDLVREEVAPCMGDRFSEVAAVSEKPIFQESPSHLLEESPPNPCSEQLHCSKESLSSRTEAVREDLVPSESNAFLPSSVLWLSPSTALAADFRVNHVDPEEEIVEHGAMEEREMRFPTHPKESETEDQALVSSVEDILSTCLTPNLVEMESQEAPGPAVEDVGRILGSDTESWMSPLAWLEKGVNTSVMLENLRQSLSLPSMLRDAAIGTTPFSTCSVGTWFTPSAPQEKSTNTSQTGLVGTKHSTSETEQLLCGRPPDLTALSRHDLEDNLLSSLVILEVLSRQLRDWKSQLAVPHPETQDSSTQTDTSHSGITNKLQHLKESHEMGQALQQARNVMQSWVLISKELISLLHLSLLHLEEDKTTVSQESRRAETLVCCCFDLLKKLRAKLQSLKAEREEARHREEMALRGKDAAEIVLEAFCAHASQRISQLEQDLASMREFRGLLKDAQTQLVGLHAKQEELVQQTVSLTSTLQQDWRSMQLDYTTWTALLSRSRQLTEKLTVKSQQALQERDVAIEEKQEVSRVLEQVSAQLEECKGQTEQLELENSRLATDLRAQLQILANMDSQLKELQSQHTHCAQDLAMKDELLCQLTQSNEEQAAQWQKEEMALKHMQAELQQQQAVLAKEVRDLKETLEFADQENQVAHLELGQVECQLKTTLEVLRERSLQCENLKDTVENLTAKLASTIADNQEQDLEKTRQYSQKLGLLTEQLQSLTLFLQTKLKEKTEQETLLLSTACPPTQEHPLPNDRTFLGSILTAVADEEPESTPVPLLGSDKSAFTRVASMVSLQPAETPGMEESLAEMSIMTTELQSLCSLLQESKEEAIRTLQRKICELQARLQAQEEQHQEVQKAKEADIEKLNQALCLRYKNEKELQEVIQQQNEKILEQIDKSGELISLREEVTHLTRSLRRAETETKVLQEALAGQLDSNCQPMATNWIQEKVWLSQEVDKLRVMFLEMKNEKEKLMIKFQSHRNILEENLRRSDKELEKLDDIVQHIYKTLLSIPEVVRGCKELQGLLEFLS
UniProt P09234, whole entry, looked up: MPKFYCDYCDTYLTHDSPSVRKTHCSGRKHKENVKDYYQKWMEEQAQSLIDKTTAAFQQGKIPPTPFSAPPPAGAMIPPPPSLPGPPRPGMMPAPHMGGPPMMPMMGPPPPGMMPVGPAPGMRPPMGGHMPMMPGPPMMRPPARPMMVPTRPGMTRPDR
UniProt O60493, whole entry, looked up: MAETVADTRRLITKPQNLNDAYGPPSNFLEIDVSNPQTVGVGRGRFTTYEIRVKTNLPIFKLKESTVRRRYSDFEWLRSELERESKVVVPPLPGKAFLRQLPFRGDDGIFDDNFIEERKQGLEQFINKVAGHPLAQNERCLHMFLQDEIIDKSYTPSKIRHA
UniProt Q9Y5W9: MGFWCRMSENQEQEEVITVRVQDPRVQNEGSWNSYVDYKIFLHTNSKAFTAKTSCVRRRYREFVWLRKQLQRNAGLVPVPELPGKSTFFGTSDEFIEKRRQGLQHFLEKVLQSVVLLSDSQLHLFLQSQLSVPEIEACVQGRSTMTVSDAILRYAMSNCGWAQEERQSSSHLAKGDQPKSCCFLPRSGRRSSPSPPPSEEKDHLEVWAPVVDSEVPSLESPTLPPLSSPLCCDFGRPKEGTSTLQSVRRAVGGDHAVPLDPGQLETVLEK
UniProt Q7KZF4: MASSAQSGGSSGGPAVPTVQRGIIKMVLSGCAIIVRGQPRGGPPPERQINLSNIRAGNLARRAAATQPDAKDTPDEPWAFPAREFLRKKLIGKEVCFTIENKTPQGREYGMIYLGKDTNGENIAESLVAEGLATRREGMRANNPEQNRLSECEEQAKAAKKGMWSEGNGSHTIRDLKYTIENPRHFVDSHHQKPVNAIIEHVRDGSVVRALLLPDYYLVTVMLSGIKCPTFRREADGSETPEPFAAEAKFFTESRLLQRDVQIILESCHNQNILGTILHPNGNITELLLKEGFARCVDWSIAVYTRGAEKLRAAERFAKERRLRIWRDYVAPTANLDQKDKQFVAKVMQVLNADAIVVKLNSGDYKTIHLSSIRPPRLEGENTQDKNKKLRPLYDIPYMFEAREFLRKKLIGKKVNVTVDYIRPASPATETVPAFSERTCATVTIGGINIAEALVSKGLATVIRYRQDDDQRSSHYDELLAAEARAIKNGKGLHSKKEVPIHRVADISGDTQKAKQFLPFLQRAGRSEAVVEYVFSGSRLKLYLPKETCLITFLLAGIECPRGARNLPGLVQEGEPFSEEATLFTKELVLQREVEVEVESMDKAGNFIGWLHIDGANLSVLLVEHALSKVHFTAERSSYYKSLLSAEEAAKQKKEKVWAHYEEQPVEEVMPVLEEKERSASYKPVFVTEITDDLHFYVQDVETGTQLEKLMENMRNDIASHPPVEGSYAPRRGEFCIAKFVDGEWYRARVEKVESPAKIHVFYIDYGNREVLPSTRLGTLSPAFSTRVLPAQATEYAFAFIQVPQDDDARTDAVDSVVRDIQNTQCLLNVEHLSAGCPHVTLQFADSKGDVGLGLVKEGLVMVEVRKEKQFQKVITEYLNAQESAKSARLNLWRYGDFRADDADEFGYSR
UniProt P04179: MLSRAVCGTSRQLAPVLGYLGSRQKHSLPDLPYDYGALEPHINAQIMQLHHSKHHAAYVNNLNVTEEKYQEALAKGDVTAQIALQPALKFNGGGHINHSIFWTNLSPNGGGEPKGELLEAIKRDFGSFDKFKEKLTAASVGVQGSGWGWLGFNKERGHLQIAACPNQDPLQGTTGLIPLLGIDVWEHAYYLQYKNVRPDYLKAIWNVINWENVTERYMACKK

How the values were obtained:
Assay in all cases: log2 fold change, soluble protein after heating vs DMSO (PISA); higher = thermal stabilisation; K562 lysate, 10 uM; active = over 0.2 and 3.5 SD of the protein, either way, in both replicates (recomputed)
[1] = compound: C#Cc1cccc(Nc2ncnc3cc(OCCOC)c(OCCOC)cc23)c1 [erlotinib]
Method in brief: (§1)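 Quantification was by TMTpro 16plex LC-MS/MS with equalised channel sums, applied to the supernatant after 21,000xg for 90 min. Samples were crude K562 extract at 1 mg/mL protein in PBS pH 7.4 with 1 mM MgCl2, treated with 10 μM compound for 30 min, heated for 3 min across 48°C-58°C, pooled and brought to 0.5% NP-40 at 4°C. Values are log-two fold changes in thermal stability relative to solvent controls, from duplicates.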

[2] = compound: C/C(=N\NC(=O)C1=CC(=CC=C1)S(=O)(=O)N2CCOCC2)/C3=C(C=CC(=C3)Cl)O
Method in brief: as §1

[3] = compound: C1=CC(=CC=C1C2=NC3=C(N2)C=C(C=C3)C(=O)N)OC4=CC=C(C=C4)Cl
Method in brief: as §1

[4] = compound: C1=CC2=C(C=CC(=C2)/C=C\3/C(=O)NC(=NCC4=CC=CS4)S3)N=C1
Method in brief: as §1

[5] = compound: C1=CC2=NC=CN=C2C=C1/C=C/3\C(=O)NC(=O)S3
Method in brief: as §1

[6] = compound: C1=CC=C(C=C1)C2=NC(=C(N2)C3=CC=NC=C3)C4=CC(=C(C=C4)Cl)O
Method in brief: as §1

[7] = compound: C1=CC=C2C(=C1)C3=NNC4=CC=CC(=C43)C2=O
Method in brief: as §1

[8] = compound: C1CCN(C1)C(=O)NC2=CC=CC(=C2)NC3=NC=C(C(=N3)NCCC4=CN=CN4)Br
Method in brief: as §1

[9] = compound: C1CN(CCC1(CC2=CC=C(C=C2)Cl)N)C3=NC=NC4=C3C=CN4
Method in brief: as §1

[10] = compound: C1COCCN1CCN2C3=CC=CC=C3N=C2NC(=O)C4=CC(=CC=C4)[N+](=O)[O-] [IRAK-1-4 Inhibitor I]
Method in brief: as §1

[11] = compound: C=CC(=O)N1CCC[C@@H](n2nc(-c3ccc(Oc4ccccc4)cc3)c3c(N)ncnc32)C1 [ibrutinib]
Method in brief: as §1

[12] = compound: CC(=O)c1cnc2ccc(-c3cc(Cl)c(O)c(Cl)c3)nc2c1N[C@H]1CC[C@H](CN(C)C)CC1
Method in brief: as §1

[13] = compound: CC(C)(C)Cn1c(N)nc2ccc(-c3[nH]c(C(C)(C)C)nc3-c3ccc(F)cc3)nc21 [ralimetinib]
Method in brief: as §1

[14] = compound: CC(C)(O)CC(=O)NCCn1ccc2ncnc(Nc3ccc(Oc4cccc(C(F)(F)F)c4)c(Cl)c3)c21
Method in brief: as §1

[15] = compound: CC(C)C1=C2N=C(C=C(N2N=C1)NCC3=CC=CC=C3)NCCCCCCN
Method in brief: as §1

[16] = compound: CC1=C(C(CC(=O)N1)C2=CC=C(C=C2)C(F)(F)F)C(=O)NC3=C(C=C4C(=C3)C=NN4)F
Method in brief: as §1

[17] = compound: CC1=C(C2=C(C=C1)C(=O)C3=CC=CC=C3N2CCCN)C
Method in brief: as §1

[18] = compound: CC1=C(C=C(C=C1)NC(=O)C2=CC(=CC=C2)C(C)(C)C#N)NC3=CC4=C(C=C3)N=CN(C4=O)C
Method in brief: as §1

[19] = compound: CC1=C(C=C(C=C1)NC(=O)C2=CC(=CC=C2)N(C)C)NC(=O)C3=CC=C(C=C3)O
Method in brief: as §1

[20] = compound: CC1=CC=C(C=C1)SC2=C3C=C(SC3=CN=C2)C(=O)N
Method in brief: as §1

| Target | log2 fold change [1] | log2 fold change [2] | log2 fold change [3] | log2 fold change [4] | log2 fold change [5] | log2 fold change [6] | log2 fold change [7] | log2 fold change [8] | log2 fold change [9] | log2 fold change [10] | log2 fold change [11] | log2 fold change [12] | log2 fold change [13] | log2 fold change [14] | log2 fold change [15] | log2 fold change [16] | log2 fold change [17] | log2 fold change [18] | log2 fold change [19] | log2 fold change [20] |
| --- | --- | --- | --- | --- | --- | --- | --- | --- | --- | --- | --- | --- | --- | --- | --- | --- | --- | --- | --- | --- |
| SNRPB isoform 3 (UniProt P14678) | inactive: 0.016 | inactive: 0.064 | inactive: 0.028 | inactive: -0.004 | inactive: -0.003 | inactive: -0.002 | inactive: 0.035 | inactive: 0.017 | inactive: -0.009 | inactive: 0.022 | inactive: -0.038 | inactive: 0.032 | inactive: 0.015 | inactive: 0.004 | inactive: -0.012 | inactive: 0.03 | inactive: -0.007 | inactive: -0.056 | inactive: -0.058 | inactive: 0.029 |
| SNX15 (UniProt Q9NRS6) | inactive: -0.074 | inactive: -0.097 | inactive: -0.044 | inactive: -0.048 | inactive: 0.012 | inactive: -0.002 | inactive: 0.008 | inactive: 0.01 | inactive: 0.013 | inactive: -0.01 | inactive: -0.006 | inactive: -0.014 | inactive: 0.012 | inactive: -0.002 | inactive: -0.058 | inactive: 0.009 | inactive: 0.037 | inactive: -0.046 | inactive: 0.066 | inactive: 0.019 |
| SMIM8 (UniProt Q96KF7) | inactive: -0.057 | inactive: 0.005 | inactive: 0.028 | inactive: 0.004 | inactive: -0.004 | inactive: -0.137 | inactive: 0.028 | inactive: 0.026 | inactive: 0 | inactive: 0.058 | inactive: 0.073 | inactive: -0.02 | inactive: 0.059 | inactive: -0.136 | inactive: -0.095 | inactive: -0.025 | inactive: -0.128 | inactive: 0.038 | inactive: 0.053 | inactive: -0.006 |
| SNRPC (UniProt Q5TAL2) | inactive: -0.049 | inactive: 0.033 | inactive: 0.066 | inactive: 0.044 | inactive: -0.021 | inactive: -0.03 | inactive: 0.011 | inactive: -0.053 | inactive: 0.009 | inactive: 0.049 | inactive: 0.101 | inactive: -0.076 | inactive: -0.067 | inactive: -0.069 | inactive: -0.012 | inactive: 0.016 | inactive: -0.05 | inactive: 0.024 | inactive: 0.013 | inactive: -0.075 |
| SP100 isoform 4 (UniProt P23497) | inactive: 0.006 | inactive: 0.016 | inactive: -0.006 | inactive: 0.015 | inactive: -0.011 | inactive: -0.022 | inactive: 0 | inactive: -0.013 | inactive: -0.014 | inactive: -0.057 | inactive: 0 | inactive: 0.003 | inactive: 0.055 | inactive: 0.038 | inactive: -0.017 | inactive: -0.024 | inactive: -0.003 | inactive: -0.016 | inactive: -0.008 | inactive: -0.015 |
| SMIM12 (UniProt Q96EX1) | inactive: 0.048 | inactive: -0.105 | inactive: -0.024 | inactive: -0.042 | inactive: -0.026 | inactive: 0.024 | inactive: -0.009 | inactive: 0.075 | inactive: 0.008 | inactive: -0.009 | inactive: 0.04 | inactive: 0.013 | inactive: 0.021 | inactive: -0.049 | inactive: -0.024 | inactive: -0.008 | inactive: -0.002 | inactive: 0.038 | inactive: -0.064 | inactive: -0.011 |
| SNRNP27 (UniProt Q8WVK2) | inactive: -0.119 | inactive: -0.048 | inactive: 0.014 | inactive: 0.038 | inactive: -0.053 | inactive: -0.022 | inactive: 0.001 | inactive: 0.002 | inactive: -0.013 | inactive: 0.006 | inactive: 0.001 | inactive: 0.008 | inactive: 0.03 | inactive: -0.054 | inactive: 0.041 | inactive: 0.006 | inactive: -0.024 | inactive: 0.039 | inactive: -0.018 | inactive: 0.042 |
| SMC1B isoform 3 (UniProt Q8NDV3) | inactive: -0.002 | active: 0.265 | inactive: 0.003 | inactive: -0.04 | inactive: -0.067 | inactive: 0.02 | inactive: -0.032 | inactive: 0.048 | inactive: 0.205 | inactive: 0.043 | inactive: 0.013 | inactive: 0.017 | inactive: 0.07 | inactive: -0.029 | inactive: 0.001 | inactive: -0.012 | inactive: -0.001 | inactive: 0.021 | inactive: 0.026 | inactive: -0.005 |
| SMARCE1 (UniProt Q969G3) | inactive: -0.027 | inactive: 0.003 | inactive: 0.028 | inactive: 0.011 | inactive: -0.004 | inactive: -0.041 | inactive: -0.029 | inactive: -0.032 | inactive: -0.004 | inactive: 0.001 | inactive: -0.016 | inactive: -0.038 | inactive: 0.018 | inactive: -0.009 | inactive: 0.029 | inactive: -0.021 | inactive: 0.007 | inactive: -0.072 | inactive: 0.003 | inactive: -0.004 |
| SPAG5 (UniProt Q96R06) | inactive: 0.013 | inactive: 0.012 | inactive: -0.054 | inactive: 0.003 | inactive: -0.008 | inactive: 0.014 | inactive: 0.018 | inactive: -0.009 | inactive: -0.011 | inactive: 0 | inactive: -0.005 | inactive: 0.039 | inactive: -0.001 | inactive: 0.017 | inactive: -0.013 | inactive: 0.03 | inactive: -0.024 | inactive: -0.024 | inactive: 0.008 | inactive: -0.005 |
| SNRPC (UniProt P09234) | inactive: -0.032 | inactive: -0.009 | inactive: 0.033 | inactive: 0.021 | inactive: -0.001 | inactive: 0 | inactive: -0.009 | inactive: -0.017 | inactive: 0.05 | inactive: 0.005 | inactive: 0.013 | inactive: -0.007 | inactive: -0.053 | inactive: 0.006 | inactive: 0.041 | inactive: -0.041 | inactive: 0.004 | inactive: -0.017 | inactive: 0.005 | inactive: -0.008 |
| SNX3 (UniProt O60493) | inactive: -0.044 | inactive: 0.018 | inactive: -0.021 | inactive: 0.009 | inactive: 0.004 | inactive: -0.002 | inactive: 0.003 | inactive: -0.006 | inactive: -0.024 | inactive: -0.003 | inactive: 0.018 | inactive: 0.062 | inactive: 0.02 | inactive: 0.003 | inactive: -0.001 | inactive: -0.032 | inactive: 0.038 | inactive: -0.04 | inactive: -0.02 | inactive: 0.041 |
| SNX11 (UniProt Q9Y5W9) | inactive: 0.01 | inactive: 0.072 | inactive: 0.043 | inactive: -0.017 | inactive: -0.039 | inactive: 0.008 | inactive: -0.035 | inactive: -0.069 | inactive: 0.024 | inactive: 0.008 | inactive: -0.028 | inactive: 0.009 | inactive: 0.022 | inactive: -0.008 | inactive: -0.013 | inactive: 0.021 | inactive: -0.101 | inactive: -0.001 | inactive: -0.004 | inactive: -0.034 |
| SMG1 (UniProt Q96Q15) | inactive: -0.004 | inactive: -0.031 | inactive: -0.046 | inactive: 0.009 | inactive: 0.029 | inactive: -0.022 | inactive: -0.072 | inactive: -0.036 | inactive: 0.024 | inactive: -0.008 | inactive: 0.041 | inactive: 0.017 | inactive: 0.044 | inactive: -0.019 | inactive: -0.003 | inactive: 0.005 | inactive: 0.027 | inactive: 0.023 | inactive: 0.017 | inactive: 0.007 |
| SND1 (UniProt Q7KZF4) | inactive: 0.022 | inactive: 0.042 | inactive: -0.009 | inactive: 0.007 | inactive: 0.031 | inactive: 0.017 | inactive: -0.042 | inactive: 0.005 | inactive: -0.005 | inactive: -0.012 | inactive: 0.012 | inactive: 0.004 | inactive: 0.03 | inactive: 0.044 | inactive: 0.027 | inactive: 0.024 | inactive: 0.015 | inactive: 0.003 | inactive: 0.038 | inactive: 0.024 |
| SOD2 (UniProt P04179) | inactive: 0.014 | inactive: 0.004 | inactive: 0.024 | inactive: -0.025 | inactive: -0.006 | inactive: -0.001 | inactive: 0.001 | inactive: 0.007 | inactive: 0.009 | inactive: 0.019 | inactive: 0.045 | inactive: -0.03 | inactive: 0.009 | inactive: -0.047 | inactive: -0.004 | inactive: -0.027 | inactive: -0.015 | inactive: -0.046 | inactive: -0.029 | inactive: -0.021 |

Individual results from the results shown.
For log2 fold change [14], SNRPC (UniProt P09234) is entered as inactive: 0.006
For log2 fold change [20], SNRPC (UniProt Q5TAL2) is entered as inactive: -0.075
